# Assay: in vitro
# Conditions: African green monkey
compound,measurement,value
"CCC(CC)COC(=O)[C@H](C)N[P@](=O)(OC[C@H]1O[C@@](C#N)(c2ccc3c(N)ncnn23)[C@H](O)[C@@H]1O)Oc1ccccc1 [Remdesivir, reference compound]",CC50,> 20 µM
